Data on 19 molecules can be found in PubChem BioAssay AID330 (DTP/NCI, 2004).

The list shows only some results of the screen, not a fair sample: it is rich in T/C values a quarter to a half above the control, in often repeated tests (any T/C) and in doses without a T/C. Further doses and runs are listed elsewhere. T/C gives the treated animals as a percentage of the vehicle group. Some doses have a count of surviving animals in place of a T/C: the source files T/C as zero there, which appears to mark a toxic dose or a test without result, not a measured value. Some doses without a T/C left all or most animals alive at the check, yet need not have been tolerated: the source hardly ever lists a survival T/C far under the control, and the zero likely stands for such cases as well. Survivors were counted at the toxicity check, usually on the fifth day, unless a day is given; later deaths do not show. Schedules are NCI's codes, taken here to give the interval after Q, in days (D) or hours (H), and the number of doses after X. Some entries hold several experiments; the results are listed from low to high. Some schedules carry Z or #; the key to these is not given. For survival time, the PubChem record calls one and a half times the control and up active, and a quarter to a half above the control has no call in these data; cut-offs in other NCI protocols can differ. Some T/C values carry the count of animals alive at the toxicity check (mostly the fifth day); without a count, all were alive then.

The test system of this test is P388 leukemia ip, CD2F1 mice, survival T/C. Description: NCI In Vivo Anticancer Drug Screen. Data for tumor model P388 Leukemia (intraperitoneal) in CD2F1 (CDF1) mice. The conditions noted are these: T/C endpoint: median survival time, higher T/C = longer survival.
The mark [1] stands for this setting: dose: 100.0 mg/kg/injection, schedule: Q01DX001 (ip), vehicle: Klucel (hydroxypropylcellulose) (HPC).
The mark [2] stands for this setting: dose: 50.0 mg/kg/injection, schedule: Q01DX009 (ip), vehicle: saline with Tween-80.
The mark [3] stands for this setting: dose: 50.0 mg/kg/injection, schedule: Q01DX009 (ip), vehicle: saline.
[4] abbreviates: dose: 100.0 mg/kg/injection, schedule: Q01DX009 (ip), vehicle: saline.
Where [5] appears, read: dose: 200.0 mg/kg/injection, schedule: Q01DX009 (ip), vehicle: saline.
Where [6] appears, read: dose: 100.0 mg/kg/injection, schedule: Q01DX009 (ip), vehicle: saline with Tween-80.
[7] abbreviates: dose: 200.0 mg/kg/injection, schedule: Q01DX009 (ip), vehicle: saline with Tween-80.
Where [8] appears, read: dose: 200.0 mg/kg/injection, schedule: Q01DX005 (ip), vehicle: saline with Tween-80.
The mark [9] stands for this setting: dose: 120.0 mg/kg/injection, schedule: Q01DX005 (ip), vehicle: Klucel (hydroxypropylcellulose) (HPC).

On to `CCN(CC)C1CC(C)(O)Cc2cc3c(c(O)c21)C(=O)c1c(O)cc2c(c1C3=O)OC1OC2(C)C(O)C(N(C)C)C1O` (configuration not stated), for which the T/C by setting is: (dose: 6.25 mg/kg/injection, schedule: Q01DX009 (ip), vehicle: other) 134 % of control; (dose: 12.5 mg/kg/injection, schedule: Q01DX009 (ip), vehicle: other) 133 % of control; (dose: 25.0 mg/kg/injection, schedule: Q01DX009 (ip), vehicle: other) 139 % of control. For the same molecule, the survivor count (dose: 100.0 mg/kg/injection, schedule: Q01DX009 (ip), vehicle: other) is 3 of 6.
Take `O=[N+]([O-])c1nccn1CCCl`: the survivor count is listed as 3 of 6 (dose: 100.0 mg/kg/injection, schedule: Q01DX009 (ip), vehicle: distilled water + Tween-80) and 0 of 6 (dose: 200.0 mg/kg/injection, schedule: Q01DX009 (ip), vehicle: distilled water + Tween-80).
Turning to `O=[N+]([O-])c1ccccc1N/N=C\c1cccc2c(/C=N/Nc3ccccc3[N+](=O)[O-])c(Cl)n(-c3ccccc3)c12`, the survivor count is on record as 6 of 6 under setting [1] and 6 of 6 (dose: 400.0 mg/kg/injection, schedule: Q01DX001 (ip), vehicle: Klucel (hydroxypropylcellulose) (HPC)).
With `COC1/C=C/OC2(C)Oc3c(C)c(O)c4c(O)c(c(/C=N/N5C(C)CN(Cc6ccc(NC(C)=O)cc6)CC5C)c(O)c4c3C2=O)NC(=O)C(C)=C/C=C/C(C)C(O)C(C)C(O)C(C)C(OC(C)=O)C1C` (configuration not stated), the T/C under setting [2] was 130 % of control.
Turning to `COC(=O)C1=C(C(=O)OC)[C]([Hg][CH3])(C(=O)c2ccccc2)N=N1` (configuration not stated), the survivor count is, setting by setting: under setting [3], 3 of 6; under setting [4], 0 of 6; under setting [5], 0 of 6.
On to `CCCCCn1c(Cl)c(/C=N\Nc2ccc([N+](=O)[O-])cc2)c2ccccc21`, for which the survivor count reads like this: (dose: 25.0 mg/kg/injection, schedule: Q01DX001 (ip), vehicle: Klucel (hydroxypropylcellulose) (HPC)) 6 of 6; (dose: 50.0 mg/kg/injection, schedule: Q01DX001 (ip), vehicle: Klucel (hydroxypropylcellulose) (HPC)) 5 of 6; under setting [1], 6 of 6.
Regarding `CNc1ncnc2c1cnn2C`, the survivor count under setting [6] is 4 of 6; the survivor count under setting [7] is given as 0 of 6; the survivor count (dose: 400.0 mg/kg/injection, schedule: Q04DX003 (ip), vehicle: saline) was 2 of 6.
As for `[CH3][Sn]([CH3])([Cl])[O][Sn]([CH3])([CH3])[Cl]`, the T/C (dose: 12.5 mg/kg/injection, schedule: Q01DX009 (ip), vehicle: saline) was 125 and 141 % of control [5 of 6 alive]. Also, the survivor count is on record as 0 of 6 under setting [3]; 0 of 6 under setting [4]; 0 of 6 (dose: 100.0 mg/kg/injection, schedule: Q04DX003 (ip), vehicle: saline); 0 of 6 under setting [5].
For the molecule `Cl/N=C(\Nc1ccccc1)c1ccccn1`, the survivor count under setting [7] was 3 of 6.
On to `COc1cc2c(c(OC)c1OC)-c1ccc(OC)c(=O)cc1[C@@H](NC(=O)c1ccccc1)CC2`, for which the T/C (dose: 0.25 mg/kg/injection, schedule: Q01DX009 (ip), vehicle: Klucel (hydroxypropylcellulose) (HPC)) is 128 % of control; the T/C (dose: 1.0 mg/kg/injection, schedule: Q01DX009 (ip), vehicle: saline with Tween-80) is 143 % of control; the T/C (dose: 2.5 mg/kg/injection, schedule: Q04DX003 (ip), vehicle: saline with Tween-80) is 147 % of control [5 of 6 alive]; the T/C (dose: 3.3 mg/kg/injection, schedule: Q04DX003 (ip), vehicle: saline sonified) was 145 % of control. Moreover, the survivor count is, setting by setting: (dose: 2.0 mg/kg/injection, schedule: Q01DX009 (ip), vehicle: Klucel (hydroxypropylcellulose) (HPC)) 6 of 6; (dose: 4.0 mg/kg/injection, schedule: Q01DX009 (ip), vehicle: Klucel (hydroxypropylcellulose) (HPC)) 0 of 6; (dose: 5.0 mg/kg/injection, schedule: Q01DX009 (ip), vehicle: distilled water + Tween-80) 0 of 6; (dose: 10.0 mg/kg/injection, schedule: Q01DX009 (ip), vehicle: distilled water + Tween-80) 0 of 6; (dose: 10.0 mg/kg/injection, schedule: Q04DX003 (ip), vehicle: saline with Tween-80) 3 of 6; (dose: 20.0 mg/kg/injection, schedule: Q04DX003 (ip), vehicle: saline with Tween-80) 5 of 6. Besides, the survivor count reads like this: (dose: 40.0 mg/kg/injection, schedule: Q04DX003 (ip), vehicle: saline with Tween-80) 1 of 6; (dose: 80.0 mg/kg/injection, schedule: Q04DX003 (ip), vehicle: saline with Tween-80) 0 of 6.
`Cc1ccc2c(c1)n([O-])c1cc(Cl)ccc1[n+]2=O`: the T/C (dose: 25.0 mg/kg/injection, schedule: Q01DX005 (ip), vehicle: saline with Tween-80) is 133 % of control; the T/C (dose: 50.0 mg/kg/injection, schedule: Q01DX005 (ip), vehicle: saline with Tween-80) was 126 and 134 % of control; the T/C (dose: 100.0 mg/kg/injection, schedule: Q01DX005 (ip), vehicle: saline with Tween-80) is 138 and 148 % of control. Moreover, the survivor count under setting [8] is 4 of 6 and 6 of 6.
`CC1=CC(Cc2ccccc2)N(C)CC1C` (configuration not stated): under “dose: 240.0 mg/kg/injection, schedule: Q01DX005 (ip), vehicle: saline with Tween-80”, the survivor count is 0 of 6.
For the molecule `C=C1CCCC2CCC[N+](C)(CC(=O)OCC)C12` (configuration not stated), the survivor count reads like this: (dose: 100.0 mg/kg/injection, schedule: Q01DX005 (ip), vehicle: saline) 0 of 6; (dose: 200.0 mg/kg/injection, schedule: Q01DX005 (ip), vehicle: saline) 0 of 6.
In the case of `O=C1C=CC(=O)C2=C1C1c3ccccc3C2c2ccccc21`, for the setting “dose: 200.0 mg/kg/injection, schedule: Q01DX005 (ip), vehicle: Klucel (hydroxypropylcellulose) (HPC)”, the survivor count is 5 of 5.
`CC(=O)C(=Cc1ccc(Cl)cc1)C(C)=O`: the survivor count under setting [8] was 3 of 5.
As for `COc1ccc2nc3ccccc3c(NCCCCCCNc3c4ccccc4nc4ccc(OC)cc34)c2c1`, for the setting “dose: 7.5 mg/kg/injection, schedule: Q01DX009 (ip), vehicle: other”, the T/C is 125 % of control. Besides, the survivor count (dose: 10.0 mg/kg/injection, schedule: Q01DX009 (ip), vehicle: other) is listed as 2 of 4; the survivor count (dose: 10.0 mg/kg/injection, schedule: Q## X009 (ip), vehicle: lactic acid) is 2 of 6; the survivor count (dose: 15.0 mg/kg/injection, schedule: Q01DX009 (ip), vehicle: other) is recorded as 0 of 4; the survivor count (dose: 20.0 mg/kg/injection, schedule: Q01DX009 (ip), vehicle: other) is 0 of 4.
Take `COC1(OC)OC2=C(OC1(OC)OC)c1ccccc1C2=O`: under setting [9], the T/C was 126 % of control and the survivor count is on record as 5 of 6. Moreover, where the note is “dose: 240.0 mg/kg/injection, schedule: Q01DX005 (ip), vehicle: Klucel (hydroxypropylcellulose) (HPC)”, the survivor count was 3 of 6.
For the molecule `OC1CCN(c2c3ccccc3nc3ccccc23)CC1`, the survivor count (dose: 50.0 mg/kg/injection, schedule: Q04DX002 (ip), vehicle: saline) was 3 of 6.
Consider `Cc1c(-c2ccccc2)ccnc1/C=N/NC(=S)NCCc1ccccn1`, for which, under setting [2], the T/C is 138 % of control. For the same molecule, the survivor count is, setting by setting: under setting [6], 6 of 6; under setting [7], 4 of 6.
